Source: PubChem BioAssay AID282 (DTP/NCI, 2004)
The list shows only some results of the screen, not a fair sample: it gathers tests that were run many times, whatever their T/C, doses with no T/C, and many T/C values between a quarter and a half above the control. Other doses and runs of a compound stand elsewhere. T/C gives the treated animals as a percentage of the vehicle group. Some entries give survivors of the animals treated and no T/C: the source files T/C as zero there, which appears to mark a toxic dose or a test without result, not a measured value. Some doses without a T/C left all or most animals alive at the check, yet need not have been tolerated: the source hardly ever lists a survival T/C far under the control, and the zero likely stands for such cases as well. Counts of survivors are from the toxicity check (mostly the fifth day) where no day follows; animals may have died later. Schedule codes are those of the source, taken here to give the interval after Q, in days (D) or hours (H), and the number of doses after X. Some doses were run more than once; the values are given in rising order. Some schedules carry Z or #; the key to these is not given. For survival time, this PubChem deposit counts one and a half times the control or more as active, and values a quarter to a half above the control carry no call in these data; other NCI protocols may use other cut-offs. Some T/C values carry the count of animals alive at the toxicity check (mostly the fifth day); where none is given, no animal had died by that day.

Test system: BDF1 mice, L1210 terephthalanilide-resistant leukemia ip, survival T/C
Assay: NCI In Vivo Anticancer Drug Screen. Data for tumor model L1210 Leukemia resistant to A Terephthalanilide; NSC 38280 (intraperitoneal) in B6D2F1 (BDF1) mice
Settings: T/C endpoint: mean survival time, higher T/C = longer survival
Experimental: The antitumor activity of compounds was measured in mice bearing transplantable tumors. Survival or tumor size were measured and the results are expressed as the measurement made in the treated group (T) divided by the measurement made in the vehicle treated control group (C). The tumor model used in this assay is L1210 Leukemia resistant to A Terephthalanilide; NSC 38280 (intraperitoneal) in B6D2F1 (BDF1) mice

[1] = dose: 2.5 mg/kg/injection, schedule: Q01DX Z (ip), vehicle: carboxymethylcellulose (CMC)
[2] = dose: 50.0 mg/kg/injection, schedule: Q01DX Z (ip), vehicle: carboxymethylcellulose (CMC)
[3] = dose: 150.0 mg/kg/injection, schedule: Q01DX Z (ip), vehicle: carboxymethylcellulose (CMC)
[4] = dose: 5.0 mg/kg/injection, schedule: Q01DX Z (ip), vehicle: carboxymethylcellulose (CMC)
[5] = dose: 0.5 mg/kg/injection, schedule: Q01DX010 (ip), vehicle: saline

N=[N+]=CC(=O)OCC(N)C(=O)O (stereo not drawn)
T/C (dose: 0.5 mg/kg/injection, schedule: Q01DX Z (ip), vehicle: carboxymethylcellulose (CMC)): 125 % of control | T/C (dose: 0.75 mg/kg/injection, schedule: Q01DX Z (ip), vehicle: carboxymethylcellulose (CMC)): 142 % of control | T/C [1]: 139 and 148 % of control | T/C (dose: 3.13 mg/kg/injection, schedule: Q01DX010 (ip), vehicle: saline): 139 [5 of 6 alive] and 144 % of control | T/C (dose: 12.5 mg/kg/injection, schedule: Q01DX010 (ip), vehicle: saline): 130 % of control | T/C (dose: 20.0 mg/kg/injection, schedule: Q01DX Z (ip), vehicle: carboxymethylcellulose (CMC)): 136 % of control | survivor count (dose: 25.0 mg/kg/injection, schedule: Q01DX010 (ip), vehicle: saline): 6 of 6 | survivor count (dose: 40.0 mg/kg/injection, schedule: Q01DX Z (ip), vehicle: carboxymethylcellulose (CMC)): 6 of 6 | survivor count [2]: 3 of 6 | survivor count (dose: 75.0 mg/kg/injection, schedule: Q01DX Z (ip), vehicle: carboxymethylcellulose (CMC)): 0 of 6 | survivor count (dose: 100.0 mg/kg/injection, schedule: Q01DX Z (ip), vehicle: carboxymethylcellulose (CMC)): 0 of 6 | survivor count [3]: 0 of 6

O=c1c(O)cccc2cc(O)c(O)c(O)c12
survivor count (dose: 200.0 mg/kg/injection, schedule: Q01DX010 (ip), vehicle: saline): 6 of 6

O=c1[nH]c(=O)n(C2CC(O)C(CO)O2)cc1Br (stereo not drawn)
T/C (dose: 125.0 mg/kg/injection, schedule: Q01DX Z (ip), vehicle: carboxymethylcellulose (CMC)): 126 % of control | T/C (dose: 250.0 mg/kg/injection, schedule: Q01DX Z (ip), vehicle: carboxymethylcellulose (CMC)): 128 % of control

O=c1[nH]cc(F)c(=O)[nH]1
T/C [1]: 125 and 139 % of control | T/C (dose: 3.0 mg/kg/injection, schedule: Q01DX Z (ip), vehicle: carboxymethylcellulose (CMC)): 129 % of control | T/C (dose: 5.0 mg/kg/injection, schedule: Q01DX010 (ip), vehicle: saline): 127 % of control | T/C [4]: 138 and 145 % of control | T/C (dose: 10.0 mg/kg/injection, schedule: Q01DX010 (ip), vehicle: saline): 145 % of control | T/C [2]: 130 % of control | survivor count [3]: 6 of 6

C=CC(CN1CC1)OC(C)=O (stereo not drawn)
T/C (dose: 8.0 mg/kg/injection, schedule: Q01DX010 (ip), vehicle: saline): 140 % of control

Nc1ncnc2c1ccn2C1OC(CO)C(O)C1O (stereo not drawn)
T/C (dose: 1.25 mg/kg/injection, schedule: Q01DX Z (ip), vehicle: carboxymethylcellulose (CMC)): 134 % of control | survivor count (dose: 3.75 mg/kg/injection, schedule: Q01DX Z (ip), vehicle: carboxymethylcellulose (CMC)): 5 of 6 | survivor count [4]: 4 of 6

CN(C)c1ccc(/C=C/c2ccnc3ccccc23)cc1
survivor count (dose: 200.0 mg/kg/injection, schedule: Q01DX Z (ip), vehicle: saline): 5 of 6

CN(C)C(=S)N=Nc1c(O)[nH]c2ccccc12
survivor count (dose: 200.0 mg/kg/injection, schedule: Q01DX Z (ip), vehicle: carboxymethylcellulose (CMC)): 5 of 6

CC(CCC(C)OS(C)(=O)=O)OS(C)(=O)=O (stereo not drawn)
T/C (dose: 6.25 mg/kg/injection, schedule: Q01DX Z (ip), vehicle: carboxymethylcellulose (CMC)): 140 % of control | survivor count [2]: 6 of 6

CCCCNc1ncnc2c1cnn2C
survivor count (dose: 125.0 mg/kg/injection, schedule: Q01DX010 (ip), vehicle: saline): 6 of 6 | survivor count (dose: 250.0 mg/kg/injection, schedule: Q01DX010 (ip), vehicle: saline): 0 of 6

CC[C@]1(O)C[C@H]2CN(CCc3c([nH]c4ccccc34)[C@@](C(=O)OC)(c3cc4c(cc3OC)N(C=O)[C@H]3[C@@](O)(C(=O)OC)[C@H](OC(C)=O)[C@]5(CC)C=CCN6CC[C@]43[C@@H]65)C2)C1
T/C (dose: 0.03 mg/kg/injection, schedule: Q01DX010 (ip), vehicle: saline): 106, 120, 121, 129 % of control | T/C (dose: 0.06 mg/kg/injection, schedule: Q01DX010 (ip), vehicle: saline): 108, 118, 120, 127 % of control | T/C (dose: 0.12 mg/kg/injection, schedule: Q01DX010 (ip), vehicle: saline): 116, 118, 123, 144 % of control | T/C (dose: 0.25 mg/kg/injection, schedule: Q01DX010 (ip), vehicle: saline): 106, 109, 110, 137 % of control | T/C [5]: 98 % of control | survivor count [5]: 5 of 6 and 6 of 6
